PubChem BioAssay AID1259306, Sanger Institute | 2017

Test: 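Kinases needed for viability and knock-downs that synergise with BYL719, cetuximab or trametinib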 (primary screen)
System: human SNU-C5 colorectal cancer cells
Reagents: siRNA pool against human genes
Treatment: DMSO vehicle alone, or one anchor drug: BYL719 at 1 µM, cetuximab at 5 µg/ml or trametinib at 10 nM, given 24 h into the assay
Read-out: 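Viability versus non-targeting pool averaged across replicates, given as fraction and robust z-score, and synergy scores for BYL719, cetuximab or trametinib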
Direction: robust z-score, knock-down alone and viability, knock-down alone: higher = more viable cells
Active means: 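Essential if knock-down without drug gives a robust z-score under -3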
Calls: active = essential (knock-down alone); inactive = no change alone
The whole screen tested 794 reagents; shown is a random part of them. In the full data, 11 (1.4%) got an active call. 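Calls reflect knock-down alone; synergy scores play no part, so knock-downs synergising with a drug can be called no change.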 Viability is capped at 1. Further read-outs or replicates are left out here. No sequences are given here. Not stated in the record: the amount of reagent, the time to read-out.

The first 2 records as a preview:
gene | robust z-score, knock-down alone | viability, knock-down alone | Call
MAP2K7 (mitogen-activated protein kinase kinase 7) | 0.248 | 0.898 | inactive
TWF1 (twinfilin actin binding protein 1) | 0.989 | 1 | inactive

Main list, from the first entry:
gene | robust z-score, knock-down alone | viability, knock-down alone | Call
MAP2K7 (mitogen-activated protein kinase kinase 7) | 0.248 | 0.898 | inactive
TWF1 (twinfilin actin binding protein 1) | 0.989 | 1 | inactive
CDC7 (cell division cycle 7) | 0.989 | 1 | inactive
PRKACA (protein kinase cAMP-activated catalytic subunit alpha) | 0.989 | 1 | inactive
PPP2R1A (protein phosphatase 2 scaffold subunit Aalpha) | 0.989 | 1 | inactive
DDR1 (discoidin domain receptor tyrosine kinase 1) | 0.841 | 0.98 | inactive
TTBK2 (tau tubulin kinase 2) | -0.554 | 0.788 | inactive
MED12 (mediator complex subunit 12) | 0.0752 | 0.874 | inactive
SRPK1 (SRSF protein kinase 1) | 0.101 | 0.878 | inactive
MAPK4 (mitogen-activated protein kinase 4) | 0.746 | 0.967 | inactive
NTRK2 (neurotrophic receptor tyrosine kinase 2) | -0.568 | 0.786 | inactive
DAPK2 (death associated protein kinase 2) | 0.777 | 0.971 | inactive
HIPK2 (homeodomain interacting protein kinase 2) | 0.219 | 0.894 | inactive
PIK3C2G | -0.719 | 0.765 | inactive
PHKA1 (phosphorylase kinase regulatory subunit alpha 1) | 0.468 | 0.928 | inactive
GUCY2F (guanylate cyclase 2F, retinal) | 0.989 | 1 | inactive
PRPS1 (phosphoribosyl pyrophosphate synthetase 1) | -1.69 | 0.631 | inactive
TPD52L3 (TPD52 like 3) | -0.33 | 0.818 | inactive
DGKI (diacylglycerol kinase iota) | 0.989 | 1 | inactive
ADK (adenosine kinase) | 0.644 | 0.952 | inactive
DGKA (diacylglycerol kinase alpha) | 0.587 | 0.945 | inactive
ACVR1 (activin A receptor type 1) | 0.989 | 1 | inactive
TLK2 (tousled like kinase 2) | 0.446 | 0.925 | inactive
VRK2 (VRK serine/threonine kinase 2) | 0.597 | 0.946 | inactive
LRRK2 (leucine rich repeat kinase 2) | 0.536 | 0.938 | inactive
ERBB2 (erb-b2 receptor tyrosine kinase 2) | 0.989 | 1 | inactive
GRK1 (G protein-coupled receptor kinase 1) | 0.989 | 1 | inactive
BRDT (bromodomain testis associated) | 0.989 | 1 | inactive
PANK1 (pantothenate kinase 1) | 0.756 | 0.968 | inactive
PRKAR2B | -0.241 | 0.831 | inactive
DYRK4 (dual specificity tyrosine phosphorylation regulated kinase 4) | 0.897 | 0.987 | inactive
MYLK4 (myosin light chain kinase family member 4) | -0.335 | 0.818 | inactive
ALPK1 (alpha kinase 1) | -0.264 | 0.827 | inactive
MAPK13 (mitogen-activated protein kinase 13) | 0.989 | 1 | inactive
COQ8B (coenzyme Q8B) | -1.04 | 0.72 | inactive
MAPK12 (mitogen-activated protein kinase 12) | 0.989 | 1 | inactive
MAPKAPK5 (MAPK activated protein kinase 5) | 0.989 | 1 | inactive
GSK3B (glycogen synthase kinase 3 beta) | 0.418 | 0.921 | inactive
FXN (frataxin) | 0.989 | 1 | inactive
GSK3A (glycogen synthase kinase 3 alpha) | -0.398 | 0.809 | inactive
CHEK2 (checkpoint kinase 2) | 0.0833 | 0.875 | inactive
PIK3C2B | 0.989 | 1 | inactive
PIK3R1 (phosphoinositide-3-kinase regulatory subunit 1) | 0.34 | 0.911 | inactive
ULK4 (unc-51 like kinase 4) | -0.548 | 0.788 | inactive
ERBB4 (erb-b2 receptor tyrosine kinase 4) | -0.998 | 0.726 | inactive
NTRK3 (neurotrophic receptor tyrosine kinase 3) | 0.989 | 1 | inactive
SKAP1 (src kinase associated phosphoprotein 1) | 0.989 | 1 | inactive
PHKA2 (phosphorylase kinase regulatory subunit alpha 2) | 0.234 | 0.896 | inactive
MAPK6 (mitogen-activated protein kinase 6) | -0.0103 | 0.862 | inactive
PIP5K1C (phosphatidylinositol-4-phosphate 5-kinase type 1 gamma) | -0.521 | 0.792 | inactive
PKN3 (protein kinase N3) | 0.648 | 0.953 | inactive
CSNK1G3 (casein kinase 1 gamma 3) | -0.303 | 0.822 | inactive
FOXP1 (forkhead box P1) | 0.0369 | 0.869 | inactive
NUAK1 (NUAK family kinase 1) | -0.0367 | 0.859 | inactive
SOX9 (SRY-box transcription factor 9) | -1.77 | 0.62 | inactive
ROCK2 (Rho associated coiled-coil containing protein kinase 2) | -1.84 | 0.61 | inactive
PHKG2 (phosphorylase kinase catalytic subunit gamma 2) | -0.00287 | 0.863 | inactive
RFK (riboflavin kinase) | 0.989 | 1 | inactive
GRK4 (G protein-coupled receptor kinase 4) | -0.288 | 0.824 | inactive
FBXW7 (F-box and WD repeat domain containing 7) | 0.00695 | 0.865 | inactive
PBK (PDZ binding kinase) | 0.643 | 0.952 | inactive
BMPR2 (bone morphogenetic protein receptor type 2) | 0.684 | 0.958 | inactive
RIPK4 (receptor interacting serine/threonine kinase 4) | 0.989 | 1 | inactive
